Assays:
Sprague Dawley rats [1] = assay: Palatability (no-choice) trial, peanut butter bait; format: in vivo, rat (Sprague Dawley); settings: for Bait consumed (g) (of 5 g): n = 6, male rats only, Table 10
Source text: In the palatability trials, Sprague Dawley rats (ca. 250 g) were presented with 1% w/w compound (n=6) or 0.5% w/w compound (n=5) in a peanut butter bait, following 3 days ‘pre-baiting’ with a peanut butter formulation free of toxicant.

Sprague Dawley rats [2] = assay: Palatability (choice) trial, peanut butter bait; format: in vivo, rat (Sprague Dawley); settings: 2 days
[3] = 1% w/w toxicant in peanut butter bait, n = 6, 3 male and 3 female rats, Table 11
[4] = 1% w/w toxicant in peanut butter bait, n = 6, 3 male and 3 female rats, Table 12
[5] = 1% w/w toxicant in peanut butter bait
[6] = choice of EPA diet (20 g) and bait with 1% w/w toxicant (20 g), n = 12, Table 14
[7] = choice of standard lab pellets (20 g) and bait with 1% w/w toxicant (20 g), n = 12, Table 13
[8] = choice of EPA diet (20 g) and bait with 1% w/w toxicant (20 g), n = 2, Table 15
[9] = 2% w/w toxicant in peanut butter bait, n = 6, Table 12

| SMILES | Ave. bait consumed (% of body mass) (Sprague Dawley rats [1]; [3]) | Bait consumed (g) (of 3 g) (Sprague Dawley rats [1]; [3]) | Maximum toxicant consumed (Sprague Dawley rats [1]; [3]) [mg/kg] | Ave. Toxic bait consumed (Sprague Dawley rats [2]; [8]) [g] | Ave. toxic bait consumed (% of body mass) (Sprague Dawley rats [2]; [8]) | Maximum toxicant consumed (Sprague Dawley rats [2]; [8]) [mg/kg] | other results |
| --- | --- | --- | --- | --- | --- | --- | --- |
| O=C1NC(=O)C2C3C(C(O)(c4ccccc4)c4ccccn4)=CC(C3=C(c3ccccc3)c3ccccn3)C12 (stereo not drawn) [endo-NRB, 5-(α-Hydroxy-α-2-pyridylbenzyl)-7-(α-2-pyridylbenzylidene)-5-norbornene-2,3-dicarboximide, reference compound] | 0.65 % of body mass | 1.30 | 66 | – | – | – | Ave. bait consumed (as % of body mass) (Sprague Dawley rats [1]; [4]): 0.26 % of body mass; Bait consumed (g) (of 3 g) (Sprague Dawley rats [1]; [4]): 0.37 g; Maximum toxicant consumed (Sprague Dawley rats [1]; [4]): 26 mg/kg; Bait consumed (g) (of 5 g) (Sprague Dawley rats [1]; [5]): 1.9 ± 0.5 g |
| COc1ccc(C=CC(=O)OCCN2C(=O)C3C4C=C(C(O)(c5ccccc5)c5ccccn5)C(C4=C(c4ccccc4)c4ccccn4)C3C2=O)cc1 (stereo not drawn) [Compound 126, 5-(α-Hydroxy-α-2-pyridylbenzyl)-N-[2′-(4″-methoxycinnamoyloxy)ethyl]-7-(α-2-pyridylbenzylidene)-5-norbornene-2,3-dicarboximide] | – | – | – | – | – | – | Bait consumed (g) (of 5 g) (Sprague Dawley rats [1]; [5]): 4.0 ± 0.4 g; Ave. Toxic bait consumed (Sprague Dawley rats [2]; [6]): 1.62 g; Ave. toxic bait consumed (% of body mass) (Sprague Dawley rats [2]; [6]): 0.45 % of body mass; Maximum toxicant consumed (Sprague Dawley rats [2]; [6]): 38 mg/kg; Ave. Toxic bait consumed (Sprague Dawley rats [2]; [7]): 1.98 g; Ave. toxic bait consumed (% of body mass) (Sprague Dawley rats [2]; [7]): 0.60 % of body mass; Maximum toxicant consumed (Sprague Dawley rats [2]; [7]): 47 mg/kg |
| CCc1ccc(C=CC(=O)OCCN2C(=O)C3C4C=C(C(O)(c5ccccc5)c5ccccn5)C(C4=C(c4ccccc4)c4ccccn4)C3C2=O)cc1 (stereo not drawn) [Compound 335, N-[2′-(4″-Ethylcinnamoyloxy)ethyl]-5-(α-hydroxy-α-2-pyridylbenzyl)-7-(α-2-pyridylbenzylidene)-5-norbornene-2,3-dicarboximide] | 1.08 % of body mass | 2.23 | 87 | 3.32 | 0.94 % of body mass | 80 | – |
| Cc1ccc(CC(=O)OCN2C(=O)C3C4C=C(C(O)(c5ccccc5)c5ccccn5)C(C4=C(c4ccccc4)c4ccccn4)C3C2=O)cc1 (stereo not drawn) [Compound 324, 5-(α-Hydroxy-α-2-pyridylbenzyl)-N-4-methylphenylacetoyloxymethyl-7-(α-2-pyridylbenzylidene)-5-norbornene-2,3-dicarboximide] | 1.01 % of body mass | 2.00 | 80 | 2.92 | 0.90 % of body mass | 68 | – |
| CCCCCCCCCCCC(=O)NCCN1C(=O)C2C3C=C(C(O)(c4ccccc4)c4ccccn4)C(C3=C(c3ccccc3)c3ccccn3)C2C1=O (stereo not drawn) [Compound 339, N-2′-Dodecanamidoethyl-5-(α-hydroxy-α-2-pyridylbenzyl)-7-(α-2-pyridylbenzylidene)-5-norbornene-2,3-dicarboximide] | – | – | – | 3.71 | 1.23 % of body mass | 92 | Ave. bait consumed (as % of body mass) (Sprague Dawley rats [1]; [4]): 0.89 % of body mass; Bait consumed (g) (of 3 g) (Sprague Dawley rats [1]; [4]): 1.97 g; Maximum toxicant consumed (Sprague Dawley rats [1]; [4]): 67 mg/kg; Ave. bait consumed (as % of body mass) (Sprague Dawley rats [1]; [9]): 0.34 % of body mass; Bait consumed (g) (of 3 g) (Sprague Dawley rats [1]; [9]): 0.7 g; Maximum toxicant consumed (Sprague Dawley rats [1]; [9]): 50 mg/kg |
| CCCCCCCC(=O)OCN1C(=O)C2C3C=C(C(O)(c4ccccc4)c4ccccn4)C(C3=C(c3ccccc3)c3ccccn3)C2C1=O (stereo not drawn) [Compound 10, 5-(α-Hydroxy-α-2-pyridylbenzyl)-N-octanoyloxymethyl-7-(α-2-pyridylbenzylidene)-5-norbornene-2,3-dicarboximide] | 0.84 % of body mass | 1.65 | 64 | – | – | – | – |
| NCc1ccc(C(=O)OCCN2C(=O)C3C4C=C(C(O)(c5ccccc5)c5ccccn5)C(C4=C(c4ccccc4)c4ccccn4)C3C2=O)cc1.O=C(O)C(F)(F)F (stereo not drawn) [Compound 342, N-[2′-(4-Aminomethylbenzoyloxy)ethyl]-5-(α-hydroxy-α-2-pyridylbenzyl)-7-(α-2-pyridylbenzylidene)-5-norbornene-2,3-dicarboximide trifluoroacetate] | 0.61 % of body mass | 1.37 | 46 | – | – | – | – |
| CCOc1ccc(C=CC(=O)NCCN2C(=O)C3C4C=C(C(O)(c5ccccc5)c5ccccn5)C(C4=C(c4ccccc4)c4ccccn4)C3C2=O)cc1 (stereo not drawn) [Compound 345, N-[2′-(4″-Ethoxycinnamamido)ethyl]-5-(α-hydroxy-α-2-pyridylbenzyl)-7-(α-2-pyridylbenzylidene)-5-norbornene-2,3-dicarboximide] | – | – | – | – | – | – | Ave. bait consumed (as % of body mass) (Sprague Dawley rats [1]; [4]): 0.54 % of body mass; Bait consumed (g) (of 3 g) (Sprague Dawley rats [1]; [4]): 1.55 g; Maximum toxicant consumed (Sprague Dawley rats [1]; [4]): 41 mg/kg |
| O=C(Cc1ccccc1)OCN1C(=O)C2C3C=C(C(O)(c4ccccc4)c4ccccn4)C(C3=C(c3ccccc3)c3ccccn3)C2C1=O (stereo not drawn) [Compound 16, 5-(α-Hydroxy-α-2-pyridylbenzyl)-N-phenylacetyloxymethyl-7-(α-2-pyridylbenzylidene)-5-norbornene-2,3-dicarboximide] | 0.53 % of body mass | 1.15 | 42 | – | – | – | – |
| CC(C)c1ccc(C=CC(=O)OCCN2C(=O)C3C4C=C(C(O)(c5ccccc5)c5ccccn5)C(C4=C(c4ccccc4)c4ccccn4)C3C2=O)cc1 (stereo not drawn) [Compound 347, 5-(α-Hydroxy-α-2-pyridylbenzyl)-N-[2′-(4″-isopropylcinnamoyloxy)ethyl]-7-(α-2-pyridylbenzylidene)-5-norbornene-2,3-dicarboximide] | – | – | – | – | – | – | Ave. bait consumed (as % of body mass) (Sprague Dawley rats [1]; [4]): 0.58 % of body mass; Bait consumed (g) (of 3 g) (Sprague Dawley rats [1]; [4]): 1.3 g; Maximum toxicant consumed (Sprague Dawley rats [1]; [4]): 44 mg/kg |
| O=C1NC(=O)C2C3C(C(O)(c4ccccc4)c4ccccn4)=CC(C3=C(c3ccccc3)c3ccccn3)C12 (stereo not drawn) [NRB, 5-(α-Hydroxy-α-2-pyridylbenzyl)-7-(α-2-pyridylbenzylidene)-5-norbornene-2,3-dicarboximide, reference compound] | – | – | – | 2.81 | 0.64 % of body mass | 64 | Ave. Toxic bait consumed (Sprague Dawley rats [2]; [6]): 1.07 g; Ave. toxic bait consumed (% of body mass) (Sprague Dawley rats [2]; [6]): 0.34 % of body mass; Maximum toxicant consumed (Sprague Dawley rats [2]; [6]): 33 mg/kg; Ave. Toxic bait consumed (Sprague Dawley rats [2]; [7]): 1.05 g; Ave. toxic bait consumed (% of body mass) (Sprague Dawley rats [2]; [7]): 0.30 % of body mass; Maximum toxicant consumed (Sprague Dawley rats [2]; [7]): 31 mg/kg |
| O=C(C=Cc1ccccc1)OCN1C(=O)C2C3C=C(C(O)(c4ccccc4)c4ccccn4)C(C3=C(c3ccccc3)c3ccccn3)C2C1=O (stereo not drawn) [Compound 19, N-Cinnamoyloxymethyl-5-(α-hydroxy-α-2-pyridylbenzyl)-7-(α-2-pyridylbenzylidene)-5-norbornene-2,3-dicarboximide] | – | – | – | – | – | – | Bait consumed (g) (of 5 g) (Sprague Dawley rats [1]; [5]): 4.3 ± 0.2 g; Ave. Toxic bait consumed (Sprague Dawley rats [2]; [6]): 1.16 g; Ave. toxic bait consumed (% of body mass) (Sprague Dawley rats [2]; [6]): 0.33 % of body mass; Maximum toxicant consumed (Sprague Dawley rats [2]; [6]): 24 mg/kg; Ave. Toxic bait consumed (Sprague Dawley rats [2]; [7]): 1.81 g; Ave. toxic bait consumed (% of body mass) (Sprague Dawley rats [2]; [7]): 0.54 % of body mass; Maximum toxicant consumed (Sprague Dawley rats [2]; [7]): 40 mg/kg |
| CCCCCCCC(=O)OCCN1C(=O)C2C3C=C(C(O)(c4ccccc4)c4ccccn4)C(C3=C(c3ccccc3)c3ccccn3)C2C1=O (stereo not drawn) [Compound 111, 5-(α-Hydroxy-α-2-pyridylbenzyl)-N-2′-octanoyloxyethyl-7-(α-2-pyridylbenzylidene)-5-norbornene-2,3-dicarboximide] | 0.48 % of body mass | 1.00 | 40 | – | – | – | – |
| CC(=Cc1ccccc1)C(=O)OCCN1C(=O)C2C3C=C(C(O)(c4ccccc4)c4ccccn4)C(C3=C(c3ccccc3)c3ccccn3)C2C1=O (stereo not drawn) [Compound 121, 5-(α-Hydroxy-α-2-pyridylbenzyl)-N-2′-α-methylcinnamoyloxyethyl-7-(α-2-pyridylbenzylidene)-5-norbornene-2,3-dicarboximide] | 1.03 % of body mass | 2.10 | 85 | 2.70 | 0.82 % of body mass | 69 | – |

Reference: patent publication US9198420B2, “Rodenticidal norbormide analogues” (priority 2012, dated 2015)
